# Measurements from the supplement of paper PMC9233669.
# This sample is rich in variants without activity.
# How the values were obtained:
# [1] = system: biotinyl-Leu-oxazolone; assay: self-aminoacylation, catalytic enhancement (BLO) (fold over background); higher = more active; k-Seq, kA / k0A0; sequences stand for … in GGGAAUGGAUCCACAUCUACGAAUUC…UUCACUGCAGACUUGACGAAGCUG
# How it was run: (§1)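 Each biotinyl-aminoacyl-oxazolone, at 2–1250 μM, was incubated with mutagenized RNA pools (0.43 μM) carrying a 21-nt variable region. The 50 μL reactions contained HEPES/NaCl/KCl/MgCl2/CaCl2 buffer with 5% acetonitrile at pH 6.9–7.0 and ran for 90 minutes at room temperature. After streptavidin capture, RNA was measured by qPCR in triplicate and by Illumina sequencing, and catalytic enhancement was calculated as median kA over the uncatalyzed rate from a pseudo-first-order fit of per-sequence fraction reacted.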
# [2] = system: biotinyl-Ile-oxazolone; assay: self-aminoacylation, catalytic enhancement (BIO) (fold over background); higher = more active; k-Seq, kA / k0A0; sequences stand for … in GGGAAUGGAUCCACAUCUACGAAUUC…UUCACUGCAGACUUGACGAAGCUG
# How it was run: as §1
# [3] = system: biotinyl-Trp-oxazolone; assay: self-aminoacylation, catalytic enhancement (BWO) (fold over background); higher = more active; k-Seq, kA / k0A0; sequences stand for … in GGGAAUGGAUCCACAUCUACGAAUUC…UUCACUGCAGACUUGACGAAGCUG
# How it was run: as §1
# [4] = system: biotinyl-Phe-oxazolone; assay: self-aminoacylation, catalytic enhancement (BFO) (fold over background); higher = more active; k-Seq, kA / k0A0; sequences stand for … in GGGAAUGGAUCCACAUCUACGAAUUC…UUCACUGCAGACUUGACGAAGCUG
# How it was run: as §1
# [5] = system: biotinyl-Met-oxazolone; assay: self-aminoacylation, catalytic enhancement (BMO) (fold over background); higher = more active; k-Seq, kA / k0A0; sequences stand for … in GGGAAUGGAUCCACAUCUACGAAUUC…UUCACUGCAGACUUGACGAAGCUG
# How it was run: as §1
# [6] = system: biotinyl-Val-oxazolone; assay: self-aminoacylation, catalytic enhancement (BVO) (fold over background); higher = more active; k-Seq, kA / k0A0; sequences stand for … in GGGAAUGGAUCCACAUCUACGAAUUC…UUCACUGCAGACUUGACGAAGCUG
# How it was run: as §1
Sequence,self-aminoacylation [1],self-aminoacylation [2],self-aminoacylation [3],self-aminoacylation [4],self-aminoacylation [5],self-aminoacylation [6]
CUACUUCACACAAGCGGUCUG [Fam1A.1 aminoacylation ribozyme variant],0.817,1.03,1.01,0.75,0.816,0.993
CUACUUCAAACAAUCGAUCCG [Fam1A.1 aminoacylation ribozyme variant],0.516,0.595,0.499,1,0.572,0.612
CCAUACUUCAAGCAAUCGCUC [Fam1B.1 aminoacylation ribozyme variant],1.81,1.29,0.974,0.755,1.2,1.2
CCACACUUCAAUCAAUCCGUC [Fam1B.1 aminoacylation ribozyme variant],0.61,0.655,0.611,0.663,0.641,0.823
AAGUUUGCUAAUAGACGCCAG [Fam3.1 aminoacylation ribozyme variant],0.453,0.568,0.72,0.535,0.494,0.448
AAGUUUGAAAAUAGUCGCAAG [Fam3.1 aminoacylation ribozyme variant],1.85,1.55,1.6,1.66,1.79,1.54
AAGUAUGCUUAUAGUCGCAAG [Fam3.1 aminoacylation ribozyme variant],1.54,1.6,1.48,1.63,1.19,1.51
CCACUUCAAACAAUUGGUCUG [Fam1A.1 aminoacylation ribozyme variant],1.02,1.06,1.26,1.85,0.959,0.957
CUAUUUCAAACAAUCGGGCUG [Fam1A.1 aminoacylation ribozyme variant],0.844,1.24,1.88,2.05,1.08,1
AUUAACCUAGGUCAUAGGGUG [Fam2.2 aminoacylation ribozyme variant],1.74,1.29,2.08,1.19,1.41,1.36
CUACUUCAAACAAUGGGUCAG [Fam1A.1 aminoacylation ribozyme variant],0.651,0.6,0.5,0.92,0.648,0.589
CGACACUUCAAGCAAUCGGUC [Fam1B.1 aminoacylation ribozyme variant],1.1,1.08,7.38,13.4,0.972,1.15
CUACACUUCAAGCAAUCGGCC [Fam1B.1 aminoacylation ribozyme variant],2.41,1.82,5.03,6.22,1.69,1.75
AAGUUCGCUUAUAGUCGCAAG [Fam3.1 aminoacylation ribozyme variant],1.84,1.86,2.23,1.99,2.03,1.5
CUACGUCAAACAAUCGGUCUG [Fam1A.1 aminoacylation ribozyme variant],0.942,0.992,1.03,1.11,0.991,1.06
AUUACCCUGUUCAUCGAGUGA [Fam2.1 aminoacylation ribozyme variant],5.44,2.97,7.34,16.6,5.57,3.22
AAGUUUGCUCGUAGUCGCAAG [Fam3.1 aminoacylation ribozyme variant],0.9,0.861,1.73,1.87,0.929,0.774
AAGUUUGCUAAUAGUAGAAAG [Fam3.1 aminoacylation ribozyme variant],1.3,1.68,1.33,1.06,1.55,1.18
CCAUACUUCGAGCAAUCGGUC [Fam1B.1 aminoacylation ribozyme variant],1.18,1.19,1.26,1.19,0.961,1.33
CUACUUCAAACAAUGGGUCCG [Fam1A.1 aminoacylation ribozyme variant],1.01,0.975,1.01,0.542,0.85,0.896
CUACUUCAAACAACCGGUUUG [Fam1A.1 aminoacylation ribozyme variant],0.992,0.897,0.686,0.448,0.851,0.985
AAGAUUGCUAAUAGUUGCAAG [Fam3.1 aminoacylation ribozyme variant],0.923,1.58,1.18,1.73,1.32,1.16
AAGUUUGUAAAUAGUCGCAAG [Fam3.1 aminoacylation ribozyme variant],1.11,0.948,1.21,1.17,1.01,0.922
AAGUUUGCUAAUAGACGGAAG [Fam3.1 aminoacylation ribozyme variant],0.406,0.637,0.764,0.91,0.544,0.584
AUUCAACUAGGUCAUCGAGUG [Fam2.2 aminoacylation ribozyme variant],3.13,1.55,1.84,2.85,2.2,1.45
AUUCACUUAGGUCAUCGGGAG [Fam2.2 aminoacylation ribozyme variant],1.22,1.02,0.745,0.746,1.1,1.11

Sequence,self-aminoacylation [1],self-aminoacylation [2],self-aminoacylation [3],self-aminoacylation [4],self-aminoacylation [5],self-aminoacylation [6]
CAACUUCAAACAAUGGGUCUG [Fam1A.1 aminoacylation ribozyme variant],1.06,1.21,0.937,2.23,0.966,0.929
CUACUUGAAGCAAUCGGUCUG [Fam1A.1 aminoacylation ribozyme variant],1,0.931,0.5,0.771,1.02,0.994
AUUCACCAAAGUCAUCGGGUG [Fam2.2 aminoacylation ribozyme variant],19.5,9.57,13.6,110,15.3,8.23
AUUACCCUGGUCAUCGUGUUA [Fam2.1 aminoacylation ribozyme variant],0.682,1.05,0.622,0.945,0.959,0.992
UAGUAUGCUAAUAGUCGCAAG [Fam3.1 aminoacylation ribozyme variant],1.57,1.62,1.68,2,1.28,1.13
AAUUCCCUGGUCAUCGAGUGA [Fam2.1 aminoacylation ribozyme variant],10.8,5.6,13,41.5,10.1,6.09
CAGGUUGCUAAUAGUCGCAAG [Fam3.1 aminoacylation ribozyme variant],0.879,1.11,0.731,0.778,0.75,1.01
AAUUUUGCUAAUAGUCCCAAG [Fam3.1 aminoacylation ribozyme variant],0.905,1.3,1.26,1.75,1.21,1.03
AUUAACCUAGGUCGUCGGGUG [Fam2.2 aminoacylation ribozyme variant],2.01,1.38,1.42,3.08,1.7,1.42
CUACUGCAAACAAUCAGUCUG [Fam1A.1 aminoacylation ribozyme variant],0.538,0.633,0.47,0.941,0.546,0.546
CUACUUCAAACAAUCGGUAGG [Fam1A.1 aminoacylation ribozyme variant],0.6,0.683,0.564,1.17,0.696,0.652
CUACUUCAAACAAUCGAUAUG [Fam1A.1 aminoacylation ribozyme variant],0.454,0.603,0.49,0.824,0.549,0.606
CCCCACUUCAAGCAAUCUGUC [Fam1B.1 aminoacylation ribozyme variant],0.451,0.526,1.19,1.97,0.504,0.718
CUACUUGAAACAAUCGUUCUG [Fam1A.1 aminoacylation ribozyme variant],0.645,0.635,0.379,0.5,0.614,0.561
AUUACUCUGGUCAUCUAGUGA [Fam2.1 aminoacylation ribozyme variant],9.74,4.55,11.4,42.8,9.64,4.34
AGUCACCUAGGUCACCGGGUG [Fam2.2 aminoacylation ribozyme variant],4.38,4.07,6.49,31.7,4.49,4.47
CUACUUCAAAUAAUCGGUCUU [Fam1A.1 aminoacylation ribozyme variant],0.941,0.974,5.86,9.54,1.04,0.934
CCACAAUUCAGGCAAUCGGUC [Fam1B.1 aminoacylation ribozyme variant],1.46,1.47,0.94,1.29,1.37,1.42
AUUACCCUGCUCAUCGAUUGA [Fam2.1 aminoacylation ribozyme variant],1.01,0.821,0.652,0.728,0.829,0.785
CCACACUUCAAGCCAUCGGAC [Fam1B.1 aminoacylation ribozyme variant],1.23,1.32,1.03,0.873,1.26,1.22
CUAUUUCAGACAAUCGGUCUG [Fam1A.1 aminoacylation ribozyme variant],0.914,0.766,0.522,0.885,0.634,0.796
CUACUUCAAACAGUAGGUCUG [Fam1A.1 aminoacylation ribozyme variant],0.841,0.895,0.443,0.843,0.83,0.921
AAGUUUGCUAAUAAUCGCCAG [Fam3.1 aminoacylation ribozyme variant],0.642,0.804,0.769,0.708,0.734,0.798
CCACACUUCAAGAAAUCCGUC [Fam1B.1 aminoacylation ribozyme variant],0.688,0.778,0.651,0.659,0.563,0.817
CUUACCCUAGUCAUCGAGUGA [Fam2.1 aminoacylation ribozyme variant],5.38,2.99,6.07,5.25,4.55,3.24
